Experimental data as given in patent US10085445B2, “Biocorrosion inhibitor for metal” (KURARAY CO., LTD., priority 2013, dated 2018).

System: activated sludge
Experiment: Biodegradability test (OECD 301C, JIS K 6950)
Conditions: standard substance 30 mg (200 ppm)

## Nc1ccccc1 [aniline]
  degradability judgement: good degradability
During the test period
  biodegradation ratio: not less than 60%
